Sequences of proteins named here, by UniProt entry; tags and fusion partners are left off.
UniProt Q92624: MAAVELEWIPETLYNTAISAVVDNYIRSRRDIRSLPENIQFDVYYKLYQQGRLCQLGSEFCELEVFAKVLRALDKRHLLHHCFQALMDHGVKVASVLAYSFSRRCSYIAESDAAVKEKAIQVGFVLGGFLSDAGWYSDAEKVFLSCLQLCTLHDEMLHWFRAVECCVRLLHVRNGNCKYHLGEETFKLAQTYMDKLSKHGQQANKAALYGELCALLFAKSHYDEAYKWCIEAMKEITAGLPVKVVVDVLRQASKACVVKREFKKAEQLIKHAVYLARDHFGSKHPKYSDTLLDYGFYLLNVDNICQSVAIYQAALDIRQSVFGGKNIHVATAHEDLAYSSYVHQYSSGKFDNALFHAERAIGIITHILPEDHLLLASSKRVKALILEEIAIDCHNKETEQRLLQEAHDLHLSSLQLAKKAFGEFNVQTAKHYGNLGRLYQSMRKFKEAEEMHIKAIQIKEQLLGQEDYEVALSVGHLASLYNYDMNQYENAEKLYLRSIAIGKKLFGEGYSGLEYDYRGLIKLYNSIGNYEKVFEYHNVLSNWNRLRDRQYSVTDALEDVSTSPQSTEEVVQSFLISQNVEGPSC
UniProt P14404: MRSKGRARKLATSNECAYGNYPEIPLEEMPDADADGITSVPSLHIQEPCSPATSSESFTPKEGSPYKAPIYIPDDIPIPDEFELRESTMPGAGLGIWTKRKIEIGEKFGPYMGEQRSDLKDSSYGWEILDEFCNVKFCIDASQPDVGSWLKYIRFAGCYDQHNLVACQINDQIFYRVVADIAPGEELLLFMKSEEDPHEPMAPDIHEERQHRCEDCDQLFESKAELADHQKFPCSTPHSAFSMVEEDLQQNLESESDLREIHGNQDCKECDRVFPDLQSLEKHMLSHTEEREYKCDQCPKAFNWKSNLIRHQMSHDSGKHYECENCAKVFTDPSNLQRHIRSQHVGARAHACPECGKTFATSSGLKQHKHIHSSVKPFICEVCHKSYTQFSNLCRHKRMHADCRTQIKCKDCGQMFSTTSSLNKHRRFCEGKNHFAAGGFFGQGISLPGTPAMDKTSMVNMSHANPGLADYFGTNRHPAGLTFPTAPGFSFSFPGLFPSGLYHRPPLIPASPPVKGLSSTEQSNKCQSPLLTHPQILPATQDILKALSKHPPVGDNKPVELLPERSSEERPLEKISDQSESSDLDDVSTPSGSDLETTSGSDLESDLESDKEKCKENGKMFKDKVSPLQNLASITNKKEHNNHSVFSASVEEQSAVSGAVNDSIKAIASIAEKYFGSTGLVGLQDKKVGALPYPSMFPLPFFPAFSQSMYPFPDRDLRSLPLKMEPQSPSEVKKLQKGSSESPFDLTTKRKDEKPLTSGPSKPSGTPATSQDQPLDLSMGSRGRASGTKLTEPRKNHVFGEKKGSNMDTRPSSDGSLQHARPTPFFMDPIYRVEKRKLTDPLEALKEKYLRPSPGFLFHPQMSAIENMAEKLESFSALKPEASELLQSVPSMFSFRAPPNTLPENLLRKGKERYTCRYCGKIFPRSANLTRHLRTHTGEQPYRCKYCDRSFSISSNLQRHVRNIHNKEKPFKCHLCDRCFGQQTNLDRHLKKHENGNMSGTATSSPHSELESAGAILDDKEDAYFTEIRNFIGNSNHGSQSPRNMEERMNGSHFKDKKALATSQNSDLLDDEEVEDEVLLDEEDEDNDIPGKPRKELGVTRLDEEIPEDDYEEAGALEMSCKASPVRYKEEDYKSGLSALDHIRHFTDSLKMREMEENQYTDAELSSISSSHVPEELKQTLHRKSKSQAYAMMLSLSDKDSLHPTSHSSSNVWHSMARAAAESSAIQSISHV
UniProt A2A935: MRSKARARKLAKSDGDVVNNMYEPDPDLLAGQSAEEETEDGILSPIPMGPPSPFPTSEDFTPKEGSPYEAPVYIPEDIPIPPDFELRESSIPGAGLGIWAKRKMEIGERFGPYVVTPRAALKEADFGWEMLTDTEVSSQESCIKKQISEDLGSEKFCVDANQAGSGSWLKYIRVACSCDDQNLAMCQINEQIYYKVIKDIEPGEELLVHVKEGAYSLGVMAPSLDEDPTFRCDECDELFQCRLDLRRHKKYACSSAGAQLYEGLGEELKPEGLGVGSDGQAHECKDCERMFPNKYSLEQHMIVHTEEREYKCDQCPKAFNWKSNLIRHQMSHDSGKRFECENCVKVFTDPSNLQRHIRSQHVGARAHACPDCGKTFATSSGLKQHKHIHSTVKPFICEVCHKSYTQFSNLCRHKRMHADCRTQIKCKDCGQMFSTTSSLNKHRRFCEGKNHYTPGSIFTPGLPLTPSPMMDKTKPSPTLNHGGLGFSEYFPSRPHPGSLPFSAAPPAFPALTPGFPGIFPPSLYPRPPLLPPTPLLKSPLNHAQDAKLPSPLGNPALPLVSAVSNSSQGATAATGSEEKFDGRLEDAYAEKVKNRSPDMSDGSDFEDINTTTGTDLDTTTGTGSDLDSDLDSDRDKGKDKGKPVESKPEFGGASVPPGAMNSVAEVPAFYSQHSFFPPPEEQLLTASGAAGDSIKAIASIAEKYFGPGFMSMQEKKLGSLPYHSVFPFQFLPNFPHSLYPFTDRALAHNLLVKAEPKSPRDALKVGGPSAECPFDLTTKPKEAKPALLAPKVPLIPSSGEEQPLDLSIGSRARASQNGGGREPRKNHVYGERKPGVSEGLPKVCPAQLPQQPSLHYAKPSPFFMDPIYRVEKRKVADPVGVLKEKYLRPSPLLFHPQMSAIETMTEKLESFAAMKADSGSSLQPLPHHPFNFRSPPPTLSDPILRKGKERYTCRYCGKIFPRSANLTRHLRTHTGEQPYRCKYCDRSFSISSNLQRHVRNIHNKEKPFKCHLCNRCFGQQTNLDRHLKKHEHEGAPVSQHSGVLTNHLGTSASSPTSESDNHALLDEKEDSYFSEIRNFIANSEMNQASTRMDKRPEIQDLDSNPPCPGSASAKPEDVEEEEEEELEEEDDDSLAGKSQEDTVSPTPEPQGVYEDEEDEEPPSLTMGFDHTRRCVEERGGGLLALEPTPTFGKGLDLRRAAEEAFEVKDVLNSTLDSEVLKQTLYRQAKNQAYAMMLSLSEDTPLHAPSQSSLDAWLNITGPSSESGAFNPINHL
UniProt P97471: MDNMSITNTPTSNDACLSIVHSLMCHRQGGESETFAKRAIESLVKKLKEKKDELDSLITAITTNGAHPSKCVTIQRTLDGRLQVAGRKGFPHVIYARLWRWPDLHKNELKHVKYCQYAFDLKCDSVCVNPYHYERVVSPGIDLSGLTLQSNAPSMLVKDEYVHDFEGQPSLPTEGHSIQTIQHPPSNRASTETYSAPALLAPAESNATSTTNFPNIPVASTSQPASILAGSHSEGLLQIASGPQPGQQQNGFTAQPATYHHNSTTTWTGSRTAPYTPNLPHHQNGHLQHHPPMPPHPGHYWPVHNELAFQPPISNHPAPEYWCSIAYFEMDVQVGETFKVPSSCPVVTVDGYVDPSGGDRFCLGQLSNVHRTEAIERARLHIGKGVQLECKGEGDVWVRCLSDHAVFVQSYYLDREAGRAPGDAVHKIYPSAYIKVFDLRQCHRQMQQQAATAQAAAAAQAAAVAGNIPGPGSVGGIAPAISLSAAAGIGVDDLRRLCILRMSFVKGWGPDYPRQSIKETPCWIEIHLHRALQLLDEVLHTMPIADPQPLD

In PMC9433319:

B1: EHD2, endogenous (protein, UniProt Q8BH64 1-543)
chain: MFSWLKKGGARGQRPEAIRTVTSSLKELYRTKLLPLEEHYRFGSFHSPALEDADFDGKPMVLVAGQYSTGKTSFIQYLLEQEVPGSRVGPEPTTDCFVAVMHGETEGTVPGNALVVDPEKPFRKLNPFGNTFLNRFMCAQLPNQVLESISIIDTPGILSGAKQRVSRGYDFPAVLRWFAERVDLIILLFDAHKLEISDEFSEAIGALRGHEDKIRVVLNKADMVETQQLMRVYGALMWALGKVVGTPEVLRVYIGSFWSQPLLVPDNRRLFELEEQDLFRDIQGLPRHAALRKLNDLVKRARLVRVHAYIISYLKKEMPTVFGKENKKKQLILKLPVIFAKIQLEHHISPGDFPDCQKMQELLMAHDFTKFHSLKPKLLEALDDMLAQDIAKLMPLLRQEELESVEAGVQGGAFEGTRMGPFVERGPDEAIEDGEEGSEDDAEWVVTKDKSKYDEIFYNLAPADGKLSGSKAKTWMVGTKLPNSVLGRIWKLSDVDRDGMLDDEEFALASHLIEAKLEGHGLPTNLPRRLVPPSKRRQKGSAE

Biological target: HA-tagged APPBP2 (codon-optimized human Appbp2 cDNA) (human) (UniProt Q92624)
Assay: affinity purification with mass spectrometry; HA-tagged Appbp2 complex from nuclear extracts of differentiated Appbp2-KO adipocytes treated with MG132; anti-HA magnetic beads 2 h; binding buffer 50 mM Tris-Cl pH 7.4, 150 mM NaCl, 0.5% Triton X-100; eluted by 3xHA peptide; LC-MS/MS

binding, binds:
PRDM3, endogenous (from UniProt P14404 1-1232)
PRDM16 (PR domain-containing 16), endogenous (from UniProt A2A935 1-1275)
SMAD4, endogenous (from UniProt P97471 1-551)
B1

No constants are given. Whether binding was seen depends on the method and setting. In cells and extracts the contact can be indirect. These calls come from enrichment with a bait or labelling near it, and not all partners need be listed.
